{
  "sequences": {"note": "Sequences of proteins named here, by UniProt entry; tags and fusion partners are left off. A change or cut given only in a name is not applied to a line headed by its entry.", "UniProt Q05941, whole entry, looked up": "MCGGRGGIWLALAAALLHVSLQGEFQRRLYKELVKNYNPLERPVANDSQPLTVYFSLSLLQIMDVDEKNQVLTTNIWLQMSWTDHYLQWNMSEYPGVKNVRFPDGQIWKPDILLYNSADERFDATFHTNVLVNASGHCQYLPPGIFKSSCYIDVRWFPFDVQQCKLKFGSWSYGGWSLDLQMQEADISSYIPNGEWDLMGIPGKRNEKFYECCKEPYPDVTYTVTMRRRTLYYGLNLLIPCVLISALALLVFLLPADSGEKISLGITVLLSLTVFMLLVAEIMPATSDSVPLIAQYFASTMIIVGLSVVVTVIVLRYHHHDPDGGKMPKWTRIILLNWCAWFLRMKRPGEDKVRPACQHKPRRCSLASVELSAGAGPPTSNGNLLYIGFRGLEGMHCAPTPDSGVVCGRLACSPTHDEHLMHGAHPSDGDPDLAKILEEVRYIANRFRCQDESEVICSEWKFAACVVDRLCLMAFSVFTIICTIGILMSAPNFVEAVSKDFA", "UniProt P37288, whole entry, looked up": "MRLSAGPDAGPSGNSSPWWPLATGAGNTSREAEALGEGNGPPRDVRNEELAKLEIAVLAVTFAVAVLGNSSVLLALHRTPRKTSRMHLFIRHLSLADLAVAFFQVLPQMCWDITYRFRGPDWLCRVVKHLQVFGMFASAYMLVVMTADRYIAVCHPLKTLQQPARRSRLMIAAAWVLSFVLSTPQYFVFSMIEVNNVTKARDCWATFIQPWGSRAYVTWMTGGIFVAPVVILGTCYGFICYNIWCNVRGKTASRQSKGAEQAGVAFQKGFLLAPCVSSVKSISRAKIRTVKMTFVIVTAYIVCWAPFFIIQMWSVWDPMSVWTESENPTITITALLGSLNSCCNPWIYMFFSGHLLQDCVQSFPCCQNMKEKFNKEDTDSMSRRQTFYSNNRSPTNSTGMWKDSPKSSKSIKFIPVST", "UniProt P10275": "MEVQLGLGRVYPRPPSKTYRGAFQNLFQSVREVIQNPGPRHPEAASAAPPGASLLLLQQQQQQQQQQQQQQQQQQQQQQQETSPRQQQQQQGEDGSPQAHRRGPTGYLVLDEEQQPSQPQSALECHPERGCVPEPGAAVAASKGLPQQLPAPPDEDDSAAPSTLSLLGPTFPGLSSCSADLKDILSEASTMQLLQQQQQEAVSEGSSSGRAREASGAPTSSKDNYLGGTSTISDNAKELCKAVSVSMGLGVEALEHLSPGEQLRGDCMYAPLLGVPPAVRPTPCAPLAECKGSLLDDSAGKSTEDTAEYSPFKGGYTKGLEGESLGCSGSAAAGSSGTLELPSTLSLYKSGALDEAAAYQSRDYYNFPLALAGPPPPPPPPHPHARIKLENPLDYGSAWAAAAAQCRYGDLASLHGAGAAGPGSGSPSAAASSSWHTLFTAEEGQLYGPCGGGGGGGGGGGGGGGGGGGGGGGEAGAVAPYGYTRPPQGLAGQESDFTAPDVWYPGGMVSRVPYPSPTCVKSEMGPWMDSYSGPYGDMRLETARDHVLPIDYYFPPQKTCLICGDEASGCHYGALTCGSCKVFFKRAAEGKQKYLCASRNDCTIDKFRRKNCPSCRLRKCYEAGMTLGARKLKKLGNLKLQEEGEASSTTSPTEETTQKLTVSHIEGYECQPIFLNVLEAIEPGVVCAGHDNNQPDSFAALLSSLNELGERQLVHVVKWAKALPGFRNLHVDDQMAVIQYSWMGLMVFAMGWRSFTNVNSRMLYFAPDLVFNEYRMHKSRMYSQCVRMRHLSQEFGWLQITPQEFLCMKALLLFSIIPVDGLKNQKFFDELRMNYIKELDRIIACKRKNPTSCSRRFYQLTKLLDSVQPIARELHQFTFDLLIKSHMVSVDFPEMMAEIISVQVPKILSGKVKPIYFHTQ", "UniProt P15207": "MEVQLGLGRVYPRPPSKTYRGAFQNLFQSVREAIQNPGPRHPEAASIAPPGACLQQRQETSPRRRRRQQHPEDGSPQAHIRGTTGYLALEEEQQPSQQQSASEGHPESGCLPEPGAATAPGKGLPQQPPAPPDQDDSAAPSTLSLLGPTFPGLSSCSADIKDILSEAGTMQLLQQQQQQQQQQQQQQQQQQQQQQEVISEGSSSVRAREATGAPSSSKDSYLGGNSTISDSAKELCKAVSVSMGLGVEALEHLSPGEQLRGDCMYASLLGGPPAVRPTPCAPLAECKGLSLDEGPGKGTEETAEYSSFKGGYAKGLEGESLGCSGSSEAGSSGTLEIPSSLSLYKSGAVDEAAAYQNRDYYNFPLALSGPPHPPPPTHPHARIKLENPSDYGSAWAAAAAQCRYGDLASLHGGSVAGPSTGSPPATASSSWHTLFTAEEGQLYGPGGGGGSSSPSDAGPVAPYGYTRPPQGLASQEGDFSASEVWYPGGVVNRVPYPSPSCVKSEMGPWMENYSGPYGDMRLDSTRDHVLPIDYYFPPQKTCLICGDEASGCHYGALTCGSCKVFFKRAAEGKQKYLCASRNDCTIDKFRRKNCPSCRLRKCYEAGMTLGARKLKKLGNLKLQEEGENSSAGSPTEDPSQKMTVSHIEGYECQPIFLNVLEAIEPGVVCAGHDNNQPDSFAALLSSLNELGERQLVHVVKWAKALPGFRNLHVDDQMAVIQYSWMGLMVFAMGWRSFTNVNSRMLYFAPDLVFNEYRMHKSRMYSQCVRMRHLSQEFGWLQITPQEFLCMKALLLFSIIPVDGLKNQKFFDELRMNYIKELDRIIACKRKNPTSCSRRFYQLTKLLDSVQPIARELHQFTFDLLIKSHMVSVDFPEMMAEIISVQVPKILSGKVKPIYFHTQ", "UniProt P06401": "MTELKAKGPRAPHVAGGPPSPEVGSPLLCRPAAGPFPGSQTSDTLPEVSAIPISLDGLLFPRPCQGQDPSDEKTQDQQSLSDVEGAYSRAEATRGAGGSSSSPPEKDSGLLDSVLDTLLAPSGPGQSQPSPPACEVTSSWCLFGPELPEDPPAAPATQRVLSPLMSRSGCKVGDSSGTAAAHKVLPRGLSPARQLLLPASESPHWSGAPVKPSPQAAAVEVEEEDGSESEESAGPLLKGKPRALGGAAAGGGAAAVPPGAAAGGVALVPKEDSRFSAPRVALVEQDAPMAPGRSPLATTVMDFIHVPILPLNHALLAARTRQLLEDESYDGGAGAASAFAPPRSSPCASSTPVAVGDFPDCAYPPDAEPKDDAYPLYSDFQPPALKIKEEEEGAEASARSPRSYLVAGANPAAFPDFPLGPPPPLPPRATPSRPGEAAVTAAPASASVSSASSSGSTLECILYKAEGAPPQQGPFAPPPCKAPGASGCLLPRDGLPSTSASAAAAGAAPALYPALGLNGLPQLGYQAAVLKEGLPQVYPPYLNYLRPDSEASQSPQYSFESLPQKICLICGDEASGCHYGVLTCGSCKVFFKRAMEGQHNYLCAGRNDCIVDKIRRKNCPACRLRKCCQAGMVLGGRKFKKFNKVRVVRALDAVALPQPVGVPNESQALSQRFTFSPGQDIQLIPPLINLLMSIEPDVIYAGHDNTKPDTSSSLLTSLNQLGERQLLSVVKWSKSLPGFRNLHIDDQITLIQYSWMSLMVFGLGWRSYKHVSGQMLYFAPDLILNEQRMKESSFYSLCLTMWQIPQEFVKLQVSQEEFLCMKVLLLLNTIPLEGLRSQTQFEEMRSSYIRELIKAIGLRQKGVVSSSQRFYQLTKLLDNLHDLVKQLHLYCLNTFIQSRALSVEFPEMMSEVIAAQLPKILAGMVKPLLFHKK", "UniProt P31424, whole entry, looked up": "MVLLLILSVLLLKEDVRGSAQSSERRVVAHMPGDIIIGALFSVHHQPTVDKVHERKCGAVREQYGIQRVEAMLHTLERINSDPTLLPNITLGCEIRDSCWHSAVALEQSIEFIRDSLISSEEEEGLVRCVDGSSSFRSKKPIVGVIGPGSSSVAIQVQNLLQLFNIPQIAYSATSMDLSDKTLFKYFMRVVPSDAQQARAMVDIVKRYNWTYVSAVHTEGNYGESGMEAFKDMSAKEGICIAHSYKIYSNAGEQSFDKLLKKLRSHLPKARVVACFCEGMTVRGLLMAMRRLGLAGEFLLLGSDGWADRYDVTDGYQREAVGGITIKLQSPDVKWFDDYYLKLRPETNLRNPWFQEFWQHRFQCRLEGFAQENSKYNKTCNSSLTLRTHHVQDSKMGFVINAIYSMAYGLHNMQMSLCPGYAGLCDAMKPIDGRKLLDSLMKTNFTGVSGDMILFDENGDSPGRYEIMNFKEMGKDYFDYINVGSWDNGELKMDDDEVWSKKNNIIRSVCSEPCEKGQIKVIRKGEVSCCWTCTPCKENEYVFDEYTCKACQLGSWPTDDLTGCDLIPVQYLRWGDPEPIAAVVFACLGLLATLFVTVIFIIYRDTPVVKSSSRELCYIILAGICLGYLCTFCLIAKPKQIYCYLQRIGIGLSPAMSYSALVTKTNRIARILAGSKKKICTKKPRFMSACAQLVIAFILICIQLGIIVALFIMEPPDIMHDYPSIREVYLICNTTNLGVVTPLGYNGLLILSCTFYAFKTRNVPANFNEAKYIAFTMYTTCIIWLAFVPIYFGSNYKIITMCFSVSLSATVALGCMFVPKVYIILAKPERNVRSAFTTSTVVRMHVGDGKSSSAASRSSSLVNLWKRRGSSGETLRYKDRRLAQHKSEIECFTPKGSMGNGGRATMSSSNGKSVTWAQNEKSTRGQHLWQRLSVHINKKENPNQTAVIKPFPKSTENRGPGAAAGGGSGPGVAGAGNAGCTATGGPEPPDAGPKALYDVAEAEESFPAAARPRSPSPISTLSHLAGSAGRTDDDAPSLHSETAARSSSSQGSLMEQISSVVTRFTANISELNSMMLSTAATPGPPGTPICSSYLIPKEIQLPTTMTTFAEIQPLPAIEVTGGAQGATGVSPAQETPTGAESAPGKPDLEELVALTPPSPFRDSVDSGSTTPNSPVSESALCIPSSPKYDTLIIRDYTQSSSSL", "UniProt Q13464": "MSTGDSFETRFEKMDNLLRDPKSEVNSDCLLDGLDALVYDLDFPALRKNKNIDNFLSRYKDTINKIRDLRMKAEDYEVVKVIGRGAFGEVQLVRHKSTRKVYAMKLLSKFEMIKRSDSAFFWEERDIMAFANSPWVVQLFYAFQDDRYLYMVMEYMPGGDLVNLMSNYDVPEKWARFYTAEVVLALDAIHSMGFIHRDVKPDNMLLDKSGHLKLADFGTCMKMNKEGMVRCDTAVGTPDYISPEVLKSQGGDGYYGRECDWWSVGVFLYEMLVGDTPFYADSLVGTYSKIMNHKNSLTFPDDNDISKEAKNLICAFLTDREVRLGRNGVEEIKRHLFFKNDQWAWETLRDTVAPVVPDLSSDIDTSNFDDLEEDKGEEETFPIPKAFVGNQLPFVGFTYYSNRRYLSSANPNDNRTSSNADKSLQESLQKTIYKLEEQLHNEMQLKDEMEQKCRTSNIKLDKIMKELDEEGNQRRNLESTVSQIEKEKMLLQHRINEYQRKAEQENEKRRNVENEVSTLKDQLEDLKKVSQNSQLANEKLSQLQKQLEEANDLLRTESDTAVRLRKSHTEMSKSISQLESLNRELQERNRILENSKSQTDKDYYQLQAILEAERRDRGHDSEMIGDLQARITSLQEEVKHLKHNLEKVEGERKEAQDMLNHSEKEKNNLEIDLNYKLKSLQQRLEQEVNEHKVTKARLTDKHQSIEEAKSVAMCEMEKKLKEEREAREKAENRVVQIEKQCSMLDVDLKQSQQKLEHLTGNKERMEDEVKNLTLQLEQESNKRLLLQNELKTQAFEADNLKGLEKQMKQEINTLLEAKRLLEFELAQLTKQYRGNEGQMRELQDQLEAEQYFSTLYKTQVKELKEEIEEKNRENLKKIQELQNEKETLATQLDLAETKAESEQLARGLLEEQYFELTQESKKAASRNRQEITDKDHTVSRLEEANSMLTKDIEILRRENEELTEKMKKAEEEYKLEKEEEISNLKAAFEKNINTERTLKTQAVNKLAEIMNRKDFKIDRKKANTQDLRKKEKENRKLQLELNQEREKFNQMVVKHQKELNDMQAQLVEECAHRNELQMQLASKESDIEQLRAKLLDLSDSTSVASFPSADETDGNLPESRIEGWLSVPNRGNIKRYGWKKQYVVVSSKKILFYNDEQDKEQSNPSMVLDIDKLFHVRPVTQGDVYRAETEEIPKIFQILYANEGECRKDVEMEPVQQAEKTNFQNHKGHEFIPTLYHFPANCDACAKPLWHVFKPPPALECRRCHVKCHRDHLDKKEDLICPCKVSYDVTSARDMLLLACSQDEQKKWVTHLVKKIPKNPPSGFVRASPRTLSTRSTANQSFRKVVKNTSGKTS"},
  "source": "PubChem BioAssay (EPA / NIEHS)",
  "key": {"[1]": {"target": "Estrogen receptor beta (Homo sapiens) (UniProt Q92731)", "assay": "OT_ER_ERbERb_1440: Odyssey Thera (OT) 24-hour HEK293T Protein-Complementation Assay for Estrogen Receptor-beta/-beta Homodimer (AID 2283380);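 further: fluorescence gain from ER beta LBD homodimer complementation read by laser scanning cytometry; scored as signal increase over DMSO baseline for both agonists and antagonists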", "outline": "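HEK293T cells stably expressing human ER-beta LBD (aa 310-547) PCA homodimer pair, dosed 24 h; formaldehyde-fixed, Draq5-stained. Readout: increase in nuclear (agonist) or nuclear plus cytoplasmic (antagonist) fluorescence intensity versus DMSO, gain-of-signal fitting.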"}, "[2]": {"target": "human Protein Tyrosine Phosphatase Non-receptor Type 6 (PTPN6), PTPN6 (gene 5777) (UniProt P29350)", "assay": "NVS_ENZ_hPTPN6: NovaScreen (NVS) Enzymatic Assay for human Protein Tyrosine Phosphatase Non-receptor Type 6 (PTPN6) (AID 2283210)", "outline": "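Recombinant human PTPN6 from SF9 cells, enzyme activity followed by fluorescence after mobility-shift separation of substrate and product at 1.33 h. Chemicals first tested at a single 25 uM in duplicate, then confirmed across concentration series; loss of signal relative to DMSO.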"}, "[3]": {"target": "mouse Cholecystokinin, CCK2 Receptor (CCKB), Cckbr (gene 12426) (UniProt P56481)", "assay": "NVS_GPCR_mCKKBCentral: NovaScreen (NVS) G Protein-Coupled Receptor Assay for mouse Cholecystokinin, CCK2 Receptor (CCKB) (AID 2283293)", "outline": "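Mouse forebrain membrane preparation incubated 2 h with chemical and radioligand; bound radioactivity counted after filtration. Single-concentration duplicate screen at 25 uM, then concentration series to 50 uM max for hits, DMSO as baseline.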"}, "[4]": {"target": "human Norepinephrine Transporter (NET), SLC6A2 (gene 6530) (UniProt P23975)", "assay": "NVS_TR_hNET: NovaScreen (NVS) Transporter Assay for human Norepinephrine Transporter (NET) (AID 2283377)", "outline": "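In this cell-free binding screen, chemicals at 25 uM (duplicate) compete with a radioligand for CHO-derived human NET over 1 hour, with filter-based radiodetection.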"}, "[5]": {"target": "rat Neonicotinoid receptor (NNR), Chrna7 (gene 25302) (UniProt Q05941)", "assay": "NVS_LGIC_rNNR_BungSens: NovaScreen (NVS) Ligand-Gated Ion Channel Assay for rat Neonicotinoid receptor (NNR) (AID 2283315)", "outline": "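Rat cortical membrane preparation incubated 2.5 h with tritiated or iodinated radioligand and test chemical. Bound radioactivity was filtered and counted by scintillation, and displacement was analysed against DMSO.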"}, "[6]": {"target": "rat Glutamate, NMDA Agonist Site (GluNMDA), Grin1 (gene 24408) (UniProt P35439)", "assay": "NVS_LGIC_rGluNMDA_Agonist: NovaScreen (NVS) Ligand-Gated Ion Channel Assay for rat Glutamate, NMDA Agonist Site (GluNMDA) (AID 2283327)", "outline": "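Radioligand displacement at the agonist site on rat forebrain membrane preparations, read by filter scintillation after 1 h. Chemicals were first run at 25 uM in duplicate; those passing threshold were titrated to a 50 uM maximum.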"}, "[7]": {"target": "Histone deacetylase 3 (Homo sapiens) (UniProt O15379)", "assay": "NVS_ENZ_hHDAC3: NovaScreen (NVS) Enzymatic Assay for human Histone Deacetylase 3 (HDAC3) (AID 2283163)", "outline": "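Cell-free enzyme format: loss of fluorescent product after mobility-shift separation, 1 h incubation, recombinant human HDAC3. Single 25 uM duplicate screen first, then concentration series to a 50 uM top for hits; DMSO as baseline.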"}, "[8]": {"target": "human Vasopressin 1A Receptor (V1A), AVPR1A (gene 552) (UniProt P37288)", "assay": "NVS_GPCR_hV1A: NovaScreen (NVS) G Protein-Coupled Receptor Assay for human Vasopressin 1A Receptor (V1A) (AID 2283284)", "outline": "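Single-concentration duplicate screen at 25 uM, with concentration-response follow-up (top 50 uM) for actives. The assay measured displacement of a radioligand from human platelet-derived receptor after 1.5 h, detected by filtration and scintillation counting.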"}, "[9]": {"target": "human Androgen Receptor (AR), AR (gene 367) (UniProt P10275)", "assay": "NVS_NR_hAR: NovaScreen (NVS) Nuclear Receptor Binding Assay for human Androgen Receptor (AR) (AID 2283332)", "outline": "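Actives from a duplicate 25 uM single-point screen went on to concentration series. Read-out after 20 h was scintillation counting of displaced radioligand in LnCAP extract, with DMSO as baseline.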"}, "[10]": {"target": "rat Androgen Receptor (AR), Ar (gene 24208) (UniProt P15207)", "assay": "NVS_NR_rAR: NovaScreen (NVS) Nuclear Receptor Binding Assay for rat Androgen Receptor (AR) (AID 2283366)", "outline": "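Actives from a duplicate single-concentration (25 uM) primary run went on to concentration series. Displacement of radioligand was counted by filtration and scintillation, 18 h post-dose, using prostate extracts from testosterone-pretreated rats, with DMSO as baseline.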"}, "[11]": {"target": "human AKT serine/threonine Kinase 1 (AKT1), AKT1 (gene 207) (UniProt P31749)", "assay": "NVS_ENZ_hAKT1: NovaScreen (NVS) Enzymatic Assay for human AKT serine/threonine Kinase 1 (AKT1) (AID 2283138)", "outline": "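Screening first at 25 uM (duplicate), with threshold-passing chemicals re-tested in concentration series to a 50 uM maximum. Kinase activity read by fluorescence with mobility-shift separation of substrate and product, 1 h after dosing, DMSO baseline.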"}, "[12]": {"target": "human Serotonin, 5-Hydroxytryptamine Receptor 2A (5HT2A), HTR2A (gene 3356) (UniProt P28223)", "assay": "NVS_GPCR_h5HT2A: NovaScreen (NVS) G Protein-Coupled Receptor Assay for human Serotonin, 5-Hydroxytryptamine Receptor 2A (5HT2A) (AID 2283249)", "outline": "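Radioligand displacement on human cortex tissue extract, counted by filtration and scintillation 1.5 h post-dosing. Initial single-concentration screen at 25 uM in duplicate, concentration series in follow-up; DMSO as baseline.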"}, "[13]": {"target": "rat Gamma-Aminobutyric Acid Type B Receptor (GABBR), Gabbr1 (gene 81657) (UniProt Q9Z0U4)", "assay": "NVS_GPCR_rGABBR: NovaScreen (NVS) G Protein-Coupled Receptor Assay for rat Gamma-Aminobutyric Acid Type B Receptor (GABBR) (AID 2283301)", "outline": "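Rat cortical membrane preparation, competitive radioligand binding for 1 h with filtration and scintillation readout. Actives from duplicate single-point 25 uM screening proceeded to concentration series with 50 uM top concentration.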"}, "[14]": {"target": "Thyroid hormone receptor alpha (Rattus norvegicus) + Thyroid hormone receptor beta (Rattus norvegicus) (UniProt P18113+P63059)", "assay": "TOX21_TR_LUC_GH3_Agonist_Followup: Tox21 GH3 Thyroid Hormone Receptor Agonism Luciferase Follow-Up Assay (AID 2283939)", "outline": "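Agonist-mode confirmatory run: 15 concentrations (5 nM to 92 uM final) on GH3 rat pituitary cells, 24 h at 37C/5% CO2, T3 as positive control. Luminescence read with ONE-Glo after 30 min.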"}, "[15]": {"target": "THRB (gene 7068) (UniProt P10828)", "assay": "TOX21_TRB_BLA_Agonist_Followup_ratio: Tox21 Thyroid Hormone Receptor beta Agonism Beta-lactamase (BLA) Follow-Up Assay, Ratio (AID 2283954)", "outline": "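Agonist mode: compounds (11-point, triplicate) incubated 18 h with HEK293T cells carrying GAL4-DBD/human TRβ-LBD and UAS-β-lactamase. Blue/green (460/530 nm) FRET ratio read after 2 h CCF4-AM loading; CellTiter-Glo viability run in the same plates.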"}, "[16]": {"target": "PGR (gene 5241) (UniProt P06401)", "assay": "TOX21_PR_LUC_Followup_Antagonist: Tox21 HEK293 Progesterone Receptor (PR) Antagonism Luciferase Follow-Up Assay (AID 2283938);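 further: curve fitted upward as signal gain over DMSO baseline despite antagonist label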", "outline": "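HEK293-PR-A-luc cells, 3,000/well, preincubated 5 h at 37C before compound addition in DMSO; 16 h compound exposure at 37C. ONE-Glo luciferase luminescence read after 30 min at room temperature, fitted relative to DMSO baseline.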"}, "[17]": {"target": "Collagenase 3 (Homo sapiens) (UniProt P45452)", "assay": "NVS_ENZ_hMMP13: NovaScreen (NVS) Enzymatic Assay for human Matrix Metalloproteinase-13 (MMP13) (AID 2283182)", "outline": "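Recombinant MMP13 cleaving fluorescent substrate, cell-free, measured 1 h after dosing. Primary duplicate screen at 25 uM; actives tested in concentration-response up to 50 uM; loss of signal relative to DMSO.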"}, "[18]": {"target": "rat Glutamate Metabotropic Receptor 5 (MGluR5), Grm5 (gene 24418) (UniProt P31424)", "assay": "NVS_GPCR_rmMGluR5: NovaScreen (NVS) G Protein-Coupled Receptor Assay for rat Glutamate Metabotropic Receptor 5 (MGluR5) (AID 2283307)", "outline": "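Compounds first screened in duplicate at 25 uM, then in concentration series up to 50 uM if over threshold. Radioligand displacement on rat whole-brain membranes, filtration and scintillation counting after 1.5 h; binding loss relative to DMSO.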"}, "[19]": {"test_system": "Thyroperoxidase (TPO), gene 54314", "assay": "CCTE_Simmons_AUR_rTPO: CCTE's Amplex UltraRed Assay for Thyroperoxidase (TPO) Inhibition, Simmons Lab (AID 2283662);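 further: potency for loss of signal meaning inhibition of peroxidase activity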", "outline": "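Cell-free peroxidase activity assay using rat thyroid gland microsomes with excess H2O2 (300 uM) and 25 uM Amplex UltraRed. Compounds tested from 5 nM to 87.5 uM; fluorescence measured after 30 min at 37C, analysed relative to DMSO baseline.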"}, "[20]": {"target": "human Rho Associated Coiled-coil Containing Protein Kinase 1 (ROCK1), ROCK1 (gene 6093) (UniProt Q13464)", "assay": "NVS_ENZ_hROCK1: NovaScreen (NVS) Enzymatic Assay for human Rho Associated Coiled-coil Containing Protein Kinase 1 (ROCK1) (AID 2283214)", "outline": "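Compounds first run in duplicate at 25 uM against recombinant human ROCK1, then followed in concentration series. Kinase activity was read 1 h post-dosing by fluorescence with mobility-shift separation, as signal loss relative to DMSO.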"}},
  "note": "This list was built around the results that the source calls inconclusive (neither active nor inactive); the mix of calls is not that of the screen. For part of these data: A potency beside an inconclusive call is a rough fit, not a confirmed value. Activity calls are given as the source filed them. How the source made its calls: active means hit-call score of the fitted dose curve at least 0.9, where 1 is the maximum; inconclusive means response in the unintended direction; inactive means score below 0.9.",
  "data": [
    {"smiles": "CC(C)Nc1ccc(NC(C)C)c2c1C(=O)c1ccccc1C2=O", "values": [
      {"measurement": "AC50", "setting": "[1]", "value": "active: 19.1 µM"}
    ]},
    {"smiles": "CNC(C)=O", "values": [
      {"measurement": "outcome", "setting": "[2]", "value": "inactive"},
      {"measurement": "AC50", "setting": "[3]", "value": "inconclusive: 2.46 µM"},
      {"measurement": "outcome", "setting": "[4]", "value": "inactive"}
    ]},
    {"smiles": "COc1ccc(-n2nc(C(F)F)cc2-c2ccc(S(C)=O)cc2)cc1", "note": "(stereo unspecified)", "values": [
      {"measurement": "outcome", "setting": "[5]", "value": "inactive"},
      {"measurement": "outcome", "setting": "[6]", "value": "inactive"}
    ]},
    {"smiles": "CCCCC(CC)C(=O)O", "note": "(stereo unspecified)", "values": [
      {"measurement": "AC50", "setting": "[7]", "value": "inconclusive: 0.00784 µM"},
      {"measurement": "outcome", "setting": "[8]", "value": "inactive"}
    ]},
    {"smiles": "CCCCOCCOCCOCc1cc2c(cc1CCC)OCO2", "values": [
      {"measurement": "AC50", "setting": "[9]", "value": "inconclusive: 25 µM"},
      {"measurement": "outcome", "setting": "[10]", "value": "inactive"}
    ]},
    {"smiles": "CC(C)(O)c1ccc(CNC(=O)c2cccnc2Oc2ccc(F)cc2)cc1", "values": [
      {"measurement": "AC50", "setting": "[11]", "value": "inconclusive: 25 µM"},
      {"measurement": "outcome", "setting": "[12]", "value": "inactive"},
      {"measurement": "AC50", "setting": "[13]", "value": "inconclusive: 0.312 µM"}
    ]},
    {"smiles": "C[Si](C)O[Si](C)(C)O[Si](C)(C)O[Si](C)C", "values": [
      {"measurement": "AC50", "setting": "[14]", "value": "inconclusive: 46.1 µM"},
      {"measurement": "AC50", "setting": "[15]", "value": "inconclusive: 38.3 µM"}
    ]},
    {"smiles": "O=C(Oc1ccccc1)c1ccc(O)cc1", "values": [
      {"measurement": "AC50", "setting": "[16]", "value": "inconclusive: 46.1 µM"}
    ]},
    {"smiles": "CC(CO)OC(C)CO", "note": "(stereo unspecified) (tested in a mixture with another compound)", "values": [
      {"measurement": "AC50", "setting": "[17]", "value": "inconclusive: 25 µM"}
    ]},
    {"smiles": "c1ccc(Nc2ccccc2)cc1", "values": [
      {"measurement": "AC50", "setting": "[18]", "value": "inconclusive: 4.97 µM"},
      {"measurement": "AC50", "setting": "[19]", "value": "inconclusive: 7.14 µM"}
    ]},
    {"smiles": "CCc1ccc(O)c(C(C)(C)C)c1", "values": [
      {"measurement": "AC50", "setting": "[20]", "value": "inconclusive: 25 µM"}
    ]},
    {"smiles": "Cc1ncc(CO)c(CO)c1O", "values": [
      {"measurement": "AC50", "setting": "[20]", "value": "inconclusive: 25 µM"}
    ]}
  ]
}
